Earlier results, collected in patent US7732666B1, “O-methyltransferase gene from sorghum cloning, expression, transformation and characterization” (priority 2006, dated 2010).
At least one structure is not confirmed: it was looked up by name or label, or the drawing left a doubt.

Assays:
[1] = system: Candida albicans, Cryptococcus neoformans, Staphylococcus aureus, and methicillin-resistant S. aureus; conditions: Rimando et al. 2003a; cited from earlier work
[2] = system: streptozidin-induced diabetic mice; conditions: Manickam et al. 1997; cited from earlier work
[3] = system: Phaeoacremonium aleophilum, Phaeomoniella chlamydospora, Libertella blepharis, Fomitiporia punctata and Stereum hirsutum; conditions: Mazzullo et al. 2000; cited from earlier work

Structure (SMILES): COc1cc(/C=C/c2ccc(O)cc2)cc(OC)c1 [Pterostilbene]
- inhibition of human pathogens [1]: inhibitory
- effect on blood glucose level [2]: lower blood glucose level
- inhibition of esca fungi (mycelial growth) [3]: inhibited
